The subject of the assay is P388 leukemia ip, CD2F1 mice, survival T/C. The assay is described as follows: NCI In Vivo Anticancer Drug Screen. Data for tumor model P388 Leukemia (intraperitoneal) in CD2F1 (CDF1) mice. Particulars: T/C endpoint: median survival time, higher T/C = longer survival.
Where [1] appears, read: dose: 100.0 mg/kg/injection, schedule: Q04DX003 (ip), vehicle: saline.
Setting [2] is: dose: 400.0 mg/kg/injection, schedule: Q04DX003 (ip), vehicle: saline.
[3] abbreviates: dose: 50.0 mg/kg/injection, schedule: Q01DX009 (ip), vehicle: saline with Tween-80.
The mark [4] stands for this setting: dose: 100.0 mg/kg/injection, schedule: Q01DX009 (ip), vehicle: saline with Tween-80.
The mark [5] stands for this setting: dose: 200.0 mg/kg/injection, schedule: Q01DX009 (ip), vehicle: saline with Tween-80.
Where [6] appears, read: dose: 200.0 mg/kg/injection, schedule: Q01DX009 (ip), vehicle: distilled water + Tween-80 + alcohol.
[7] abbreviates: dose: 100.0 mg/kg/injection, schedule: Q01DX005 (ip), vehicle: Klucel (hydroxypropylcellulose) (HPC).
Where [8] appears, read: dose: 200.0 mg/kg/injection, schedule: Q01DX005 (ip), vehicle: Klucel (hydroxypropylcellulose) (HPC).
The mark [9] stands for this setting: dose: 200.0 mg/kg/injection, schedule: Q01DX005 (ip), vehicle: saline with Tween-80.
Where [10] appears, read: dose: 200.0 mg/kg/injection, schedule: Q01DX009 (ip), vehicle: Klucel (hydroxypropylcellulose) (HPC).
Where [11] appears, read: dose: 400.0 mg/kg/injection, schedule: Q01DX009 (ip), vehicle: Klucel (hydroxypropylcellulose) (HPC).
Where [12] appears, read: dose: 12.5 mg/kg/injection, schedule: Q01DX009 (ip), vehicle: Klucel (hydroxypropylcellulose) (HPC).
Where [13] appears, read: dose: 25.0 mg/kg/injection, schedule: Q01DX009 (ip), vehicle: Klucel (hydroxypropylcellulose) (HPC).

The list shows only some results of the screen, not a fair sample: it is rich in T/C values a quarter to a half above the control, in often repeated tests (any T/C) and in doses without a T/C. Further doses and runs are listed elsewhere. T/C gives the treated animals as a percentage of the vehicle group. Some doses have a count of surviving animals in place of a T/C: the source files T/C as zero there, which appears to mark a toxic dose or a test without result, not a measured value. Some survivor counts are full or nearly so, which does not show that the dose was tolerated: survival well below the control is almost never listed, so the zero probably covers shortened survival too. Survivors were counted at the toxicity check, usually on the fifth day, unless a day is given; later deaths do not show. Schedules are NCI's codes, taken here to give the interval after Q, in days (D) or hours (H), and the number of doses after X. Some entries hold several experiments; their values stand side by side, smallest first. For survival time, the PubChem record calls one and a half times the control and up active, and a quarter to a half above the control has no call in these data; cut-offs in other NCI protocols can differ. Some T/C values are followed by the survivors on the day toxicity was checked, most often the fifth; without a count, all were alive then.

As to `COc1cccc2c1C(=O)c1c(O)c3c(c(O)c1C2=O)CC(O)(/C(C)=N/NC(=O)CCCCC(=O)N/N=C(\C)C1(O)Cc2c(O)c4c(c(O)c2C(OC2CC(N)C(O)C(C)O2)C1)C(=O)c1c(OC)cccc1C4=O)CC3OC1CC(N)C(O)C(C)O1` (stereo not given), the T/C by setting is: (dose: 0.39 mg/kg/injection, schedule: Q01DX009 (ip), vehicle: water) 130 and 145 % of control; (dose: 0.78 mg/kg/injection, schedule: Q01DX009 (ip), vehicle: water) 142 % of control. Besides, the survivor count (dose: 25.0 mg/kg/injection, schedule: Q01DX009 (ip), vehicle: water) is listed as 6 of 6.

Consider `CCOC(=O)CCC(=O)N(CCCNc1c2ccccc2nc2c(OC)cccc12)CCCNc1c2ccccc2nc2c(OC)cccc12`, for which the T/C by setting is: (dose: 5.0 mg/kg/injection, schedule: Q01DX009 (ip), vehicle: water) 130 % of control; (dose: 10.0 mg/kg/injection, schedule: Q01DX009 (ip), vehicle: water) 145 % of control [5 of 6 alive].

As for `C/C(=N\NC(=S)N1CCN(C)CC1)c1ccccn1`, the survivor count is, setting by setting: under setting [1], 2 of 6; (dose: 200.0 mg/kg/injection, schedule: Q04DX003 (ip), vehicle: saline) 0 of 6; under setting [2], 0 of 6.

For the compound `CCCCOC(=O)C1(N)CCCC1`, the survivor count under setting [2] is 4 of 6.

On to `O=C1c2ccccc2CC1CN1CCCCC1` (stereo not given), for which the survivor count is, setting by setting: (dose: 25.0 mg/kg/injection, schedule: Q04DX002 (ip), vehicle: saline with Tween-80) 2 of 6; (dose: 50.0 mg/kg/injection, schedule: Q04DX002 (ip), vehicle: saline with Tween-80) 0 of 6; (dose: 100.0 mg/kg/injection, schedule: Q04DX002 (ip), vehicle: saline with Tween-80) 0 of 6.

On to `COC(=O)CCC1=CC(=O)C(OC)=CC1=O`, for which the survivor count reads like this: under setting [3], 3 of 6 and 4 of 6; under setting [4], 0 of 6 and 1 of 6; under setting [5], 0 of 6.

On to `c1cc2c3c(c1)c1cc4c(cc1c[n+]3CCC2)OCO4`, for which the T/C is, setting by setting: (dose: 6.25 mg/kg/injection, schedule: Q01DX009 (ip), vehicle: water) 126 % of control; (dose: 12.5 mg/kg/injection, schedule: Q01DX009 (ip), vehicle: water) 126 and 131 % of control; (dose: 18.8 mg/kg/injection, schedule: Q01DX009 (ip), vehicle: water) 132 % of control. Further, the survivor count by setting is: (dose: 50.0 mg/kg/injection, schedule: Q01DX009 (ip), vehicle: water) 0 of 6; (dose: 100.0 mg/kg/injection, schedule: Q01DX009 (ip), vehicle: water) 0 of 6; (dose: 200.0 mg/kg/injection, schedule: Q01DX009 (ip), vehicle: water) 0 of 6.

Take `C=C1[C@H]2C[C@H]2[C@]2(C)C[C@@H]3OC(=O)C(C)=C3C[C@@H]12`: the survivor count (dose: 19.5 mg/kg/injection, schedule: Q01DX005 (ip), vehicle: Klucel (hydroxypropylcellulose) (HPC)) was 6 of 6.

`CC(=O)OC(C)C(C)N(C)C` (stereo not given): the survivor count under setting [2] is on record as 1 of 6.

As for `C=C/C=C\CN(C)Cc1ccccc1`, for the setting “dose: 200.0 mg/kg/injection, schedule: Q01DX005 (ip), vehicle: saline”, the survivor count is on record as 0 of 5.

For `CC(C)=CCc1cc(O)c(C)cc1O`, the survivor count is, setting by setting: (dose: 100.0 mg/kg/injection, schedule: Q01DX009 (ip), vehicle: distilled water + Tween-80 + alcohol) 0 of 6; under setting [6], 0 of 6.

For the compound `C[CH2][Sn]([CH2]C)([O]C(=O)c1ccc2c(c1)OC(C)(C)O2)[O]C(=O)c1ccc2c(c1)OC(C)(C)O2`, for the setting “dose: 50.0 mg/kg/injection, schedule: Q01DX005 (ip), vehicle: Klucel (hydroxypropylcellulose) (HPC)”, the T/C is 136 % of control. Also, the survivor count reads like this: under setting [7], 0 of 6; under setting [8], 0 of 6.

For `Cc1nc(Cl)c2cnccn12`, the survivor count under setting [1] is 0 of 6.

Take `Cc1ncc(N)c2c1OC(C)(C)OC2`: the survivor count runs as follows: (dose: 100.0 mg/kg/injection, schedule: Q01DX005 (ip), vehicle: saline with Tween-80) 0 of 6; under setting [9], 0 of 6.

Regarding `C[N+]12CCC34C5=CC(=O)C(=O)C=C5[N+]5(C)C(=O)CC6OCC=C(C1)C(CC32)C6C45` (stereo not given), the survivor count by setting is: (dose: 60.0 mg/kg/injection, schedule: Q01DX005 (ip), vehicle: saline) 0 of 6; (dose: 120.0 mg/kg/injection, schedule: Q01DX005 (ip), vehicle: saline) 0 of 6; (dose: 240.0 mg/kg/injection, schedule: Q01DX005 (ip), vehicle: saline) 0 of 6.

As to `COc1cc(O)c(/C=N/NC(=S)NC23CC4CC(CC(C4)C2)C3)c(OC)c1`, the survivor count (dose: 30.0 mg/kg/injection, schedule: Q01DX005 (ip), vehicle: saline with Tween-80) was 5 of 5 and 6 of 6; the survivor count (dose: 60.0 mg/kg/injection, schedule: Q01DX005 (ip), vehicle: saline with Tween-80) is given as 6 of 6; the survivor count (dose: 120.0 mg/kg/injection, schedule: Q01DX005 (ip), vehicle: saline with Tween-80) is on record as 6 of 6; the survivor count (dose: 240.0 mg/kg/injection, schedule: Q01DX005 (ip), vehicle: saline with Tween-80) is given as 6 of 6.

For the compound `O=C(O)c1ccc2c(c1Sc1ccccc1)C(=O)c1ccccc1C2=O`, the survivor count (dose: 240.0 mg/kg/injection, schedule: Q01DX005 (ip), vehicle: Klucel (hydroxypropylcellulose) (HPC)) is 3 of 6.

Consider `O=C1c2ccccc2C(=Cc2cccnc2)c2ccccc21`, for which the survivor count is reported as 6 of 6 under setting [3], 6 of 6 under setting [4] and 6 of 6 under setting [5].

On to `N#C/C(=C1/Nc2ccccc2NC1=O)c1ccccc1`, for which the survivor count under setting [6] is listed as 6 of 6.

Take `Cc1cc(N/N=C/c2ccc(Cl)cc2)c2cc3c(cc2n1)OCO3`: the survivor count is, setting by setting: under setting [7], 4 of 6; under setting [8], 0 of 6.

For the compound `Cc1cccc(C(=O)/C=C2/CCCN2C)c1`, under “dose: 400.0 mg/kg/injection, schedule: Q04DX003 (ip), vehicle: saline with Tween-80”, the survivor count is 5 of 6.

Regarding `O=C1NC(O)c2cccc(F)c2O1` (stereo not given), the survivor count is, setting by setting: under setting [9], 0 of 5; (dose: 400.0 mg/kg/injection, schedule: Q01DX005 (ip), vehicle: saline with Tween-80) 0 of 5.

For `CCCCCCC(/C=C/c1ccc(Cl)c(Cl)c1)=N\NC(=O)C[N+](C)(C)C`, the survivor count under setting [3] is listed as 2 of 6; the survivor count (dose: 100.0 mg/kg/injection, schedule: Q01DX009 (ip), vehicle: saline) was 3 of 6; the survivor count (dose: 200.0 mg/kg/injection, schedule: Q01DX009 (ip), vehicle: saline) was 0 of 6.

As for `Cc1cc(NC(=S)SCc2ccc(Cl)cc2)ccc1Br`, the T/C under setting [4] was 135 % of control. The survivor count is 5 of 6 under setting [10] and 0 of 6 under setting [11].

With `CC(C)CC(=O)NC(C(=O)NC(C(=O)NC(CC(C)C)C(O)CC(=O)NC(C)C(=O)NC(CC(C)C)C(O)CC(=O)O)C(C)C)C(C)C` (stereo not given), the T/C is recorded as 90, 95, 98, 99 % of control under setting [12] and 91, 94, 102, 117 % of control under setting [13]. In addition, the survivor count runs as follows: (dose: 100.0 mg/kg/injection, schedule: Q01DX009 (ip), vehicle: Klucel (hydroxypropylcellulose) (HPC)) 3 of 6; under setting [10], 1 of 6; under setting [11], 0 of 6.

As to `N#C/C(N)=C(/N)C#N`, the survivor count is, setting by setting: under setting [4], 0 of 6, 1 of 6, 6 of 6; under setting [5], 0 of 6.

On to `C=CC(C)(O)/C=C/C=C(\C)C(CC1OC1(C)C)OC(=O)/C(C)=C\C` (stereo not given), for which the survivor count under setting [12] is recorded as 5 of 6 and the survivor count under setting [13] was 5 of 6.

As for `C=C[Si]12OCCN(CCO1)CCO2`, for the setting “dose: 50.0 mg/kg/injection, schedule: Q01DX009 (ip), vehicle: Klucel (hydroxypropylcellulose) (HPC)”, the T/C is 126 % of control.

(Values after PubChem BioAssay AID330 (DTP/NCI, 2004).)
